In one test the target is TYK2 JH2 domain (Homo sapiens (Human), UniProt P29597). Kind of test: TYK2 JH2 NanoBRET assay. It counts as binding.
Another test deals with human JAK2 (Homo sapiens (Human), UniProt O60674). Kind of test: JAK2 TR-FRET kinase assay. Particulars: read-out: JAK2 IC50, JAK2 0.025 nM.
Another test concerns the target human JAK3 (Homo sapiens (Human), UniProt P52333). Kind of test: JAK3 TR-FRET kinase assay. Particulars: read-out: JAK3 IC50, JAK3 0.0125 nM.
A further test has as its target human JAK1 (Homo sapiens (Human), UniProt P23458). Description: JAK1 TR-FRET kinase assay. Particulars: read-out: JAK1 IC50, JAK1 2.5 nM.

Amino acid sequences for entries named in this document (tags omitted). Residues count along the entry.
UniProt P29597, 589-875 limits assumed: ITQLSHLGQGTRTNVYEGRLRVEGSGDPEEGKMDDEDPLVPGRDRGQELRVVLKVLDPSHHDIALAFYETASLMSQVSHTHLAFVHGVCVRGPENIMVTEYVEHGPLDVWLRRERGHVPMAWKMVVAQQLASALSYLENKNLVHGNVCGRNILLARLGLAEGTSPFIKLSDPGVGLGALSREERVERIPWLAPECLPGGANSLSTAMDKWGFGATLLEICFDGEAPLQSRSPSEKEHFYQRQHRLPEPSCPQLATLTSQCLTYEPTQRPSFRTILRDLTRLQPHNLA
UniProt O60674, whole entry: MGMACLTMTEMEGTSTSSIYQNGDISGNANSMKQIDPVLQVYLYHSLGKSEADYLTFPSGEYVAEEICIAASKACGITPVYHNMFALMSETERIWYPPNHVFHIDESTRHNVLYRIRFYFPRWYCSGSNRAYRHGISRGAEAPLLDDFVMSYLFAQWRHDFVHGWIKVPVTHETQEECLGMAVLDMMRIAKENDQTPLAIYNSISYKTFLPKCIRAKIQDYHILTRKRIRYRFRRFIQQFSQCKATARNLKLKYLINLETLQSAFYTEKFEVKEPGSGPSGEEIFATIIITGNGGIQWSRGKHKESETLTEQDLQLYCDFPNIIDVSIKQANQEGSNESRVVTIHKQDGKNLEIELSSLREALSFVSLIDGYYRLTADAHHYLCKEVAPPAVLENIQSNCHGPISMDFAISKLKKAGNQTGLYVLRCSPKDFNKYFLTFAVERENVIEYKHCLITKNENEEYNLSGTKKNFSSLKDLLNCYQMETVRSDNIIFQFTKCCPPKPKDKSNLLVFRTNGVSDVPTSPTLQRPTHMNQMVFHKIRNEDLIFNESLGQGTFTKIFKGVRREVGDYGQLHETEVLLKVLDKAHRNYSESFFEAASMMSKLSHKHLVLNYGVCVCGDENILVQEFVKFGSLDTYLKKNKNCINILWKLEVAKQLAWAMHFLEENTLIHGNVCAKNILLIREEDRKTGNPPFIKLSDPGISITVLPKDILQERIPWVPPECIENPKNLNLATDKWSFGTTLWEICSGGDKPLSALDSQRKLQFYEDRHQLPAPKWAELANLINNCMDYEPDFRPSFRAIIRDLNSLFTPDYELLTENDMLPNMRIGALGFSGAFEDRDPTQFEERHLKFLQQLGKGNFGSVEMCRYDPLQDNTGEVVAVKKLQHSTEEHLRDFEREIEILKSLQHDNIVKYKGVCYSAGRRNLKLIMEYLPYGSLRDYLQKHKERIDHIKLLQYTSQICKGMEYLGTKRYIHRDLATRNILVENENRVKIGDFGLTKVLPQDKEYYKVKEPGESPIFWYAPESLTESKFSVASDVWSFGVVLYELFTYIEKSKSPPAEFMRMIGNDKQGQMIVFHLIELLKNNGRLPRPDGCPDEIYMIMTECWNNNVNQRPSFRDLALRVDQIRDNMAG
UniProt P52333, whole entry: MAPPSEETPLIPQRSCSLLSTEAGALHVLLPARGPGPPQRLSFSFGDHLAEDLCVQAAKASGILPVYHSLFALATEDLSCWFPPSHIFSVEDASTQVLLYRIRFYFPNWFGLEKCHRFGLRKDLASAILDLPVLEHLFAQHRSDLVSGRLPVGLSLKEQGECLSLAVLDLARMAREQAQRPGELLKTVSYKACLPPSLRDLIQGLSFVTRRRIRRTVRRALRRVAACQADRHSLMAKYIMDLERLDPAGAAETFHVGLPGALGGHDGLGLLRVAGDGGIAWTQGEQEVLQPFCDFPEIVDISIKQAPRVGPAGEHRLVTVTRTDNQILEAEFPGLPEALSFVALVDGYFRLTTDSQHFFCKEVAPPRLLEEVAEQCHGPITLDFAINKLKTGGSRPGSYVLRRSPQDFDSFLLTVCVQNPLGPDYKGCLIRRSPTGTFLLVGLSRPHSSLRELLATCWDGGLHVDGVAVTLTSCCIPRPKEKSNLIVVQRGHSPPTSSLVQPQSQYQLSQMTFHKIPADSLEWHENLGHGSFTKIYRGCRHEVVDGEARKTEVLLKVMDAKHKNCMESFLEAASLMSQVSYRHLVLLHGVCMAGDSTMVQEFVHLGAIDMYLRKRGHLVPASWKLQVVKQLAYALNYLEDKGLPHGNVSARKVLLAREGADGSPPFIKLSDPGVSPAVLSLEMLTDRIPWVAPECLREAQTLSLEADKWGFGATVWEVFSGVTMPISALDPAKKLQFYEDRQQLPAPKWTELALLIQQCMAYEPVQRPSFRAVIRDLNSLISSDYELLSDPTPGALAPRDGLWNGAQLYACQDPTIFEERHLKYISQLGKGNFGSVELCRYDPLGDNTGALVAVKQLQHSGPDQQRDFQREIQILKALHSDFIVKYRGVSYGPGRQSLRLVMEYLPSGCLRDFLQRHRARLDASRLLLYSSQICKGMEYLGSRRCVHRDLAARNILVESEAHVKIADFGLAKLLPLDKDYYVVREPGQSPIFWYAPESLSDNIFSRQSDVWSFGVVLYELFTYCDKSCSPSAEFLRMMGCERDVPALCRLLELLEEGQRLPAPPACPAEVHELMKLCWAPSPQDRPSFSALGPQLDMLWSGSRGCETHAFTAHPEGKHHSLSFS
UniProt P23458, whole entry: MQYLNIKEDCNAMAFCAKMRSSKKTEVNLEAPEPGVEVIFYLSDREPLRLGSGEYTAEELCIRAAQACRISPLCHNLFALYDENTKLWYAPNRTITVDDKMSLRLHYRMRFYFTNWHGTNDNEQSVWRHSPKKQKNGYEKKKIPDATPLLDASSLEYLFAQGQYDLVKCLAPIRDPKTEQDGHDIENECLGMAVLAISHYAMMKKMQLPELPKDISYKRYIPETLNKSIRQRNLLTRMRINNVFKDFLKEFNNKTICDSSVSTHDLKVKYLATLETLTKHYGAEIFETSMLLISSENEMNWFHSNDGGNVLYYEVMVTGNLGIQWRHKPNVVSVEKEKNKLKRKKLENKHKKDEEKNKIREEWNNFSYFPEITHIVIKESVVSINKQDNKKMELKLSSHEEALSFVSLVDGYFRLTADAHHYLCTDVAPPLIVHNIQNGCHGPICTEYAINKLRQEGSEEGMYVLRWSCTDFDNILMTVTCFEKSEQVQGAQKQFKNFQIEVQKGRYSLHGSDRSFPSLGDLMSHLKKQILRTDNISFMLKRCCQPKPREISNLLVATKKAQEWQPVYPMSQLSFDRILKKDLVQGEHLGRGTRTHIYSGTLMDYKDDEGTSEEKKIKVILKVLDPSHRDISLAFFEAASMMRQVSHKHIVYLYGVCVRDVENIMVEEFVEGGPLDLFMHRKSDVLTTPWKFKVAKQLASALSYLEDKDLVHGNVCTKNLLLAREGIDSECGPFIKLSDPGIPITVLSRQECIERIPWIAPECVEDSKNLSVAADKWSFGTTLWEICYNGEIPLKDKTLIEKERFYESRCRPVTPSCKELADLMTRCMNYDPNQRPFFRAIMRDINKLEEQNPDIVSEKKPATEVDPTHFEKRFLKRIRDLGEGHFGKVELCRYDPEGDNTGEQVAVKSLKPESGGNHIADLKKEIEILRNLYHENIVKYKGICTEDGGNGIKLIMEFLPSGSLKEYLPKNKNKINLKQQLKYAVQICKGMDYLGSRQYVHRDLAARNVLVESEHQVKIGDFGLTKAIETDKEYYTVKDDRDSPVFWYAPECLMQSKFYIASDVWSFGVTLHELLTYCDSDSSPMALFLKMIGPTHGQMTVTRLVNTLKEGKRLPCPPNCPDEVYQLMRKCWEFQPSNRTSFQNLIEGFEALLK

Like-named read-outs stand apart in the source and are kept apart here. The match of structure and compound is tentative.

For the molecule `COc1c(Nc2cc(Nc3ccc(F)cn3)ncc2CO)cccc1-c1ncn(C)n1`, the IC50 at TYK2 JH2 domain (read-out: IC50 (nM), TYK2 activity, HEK293T cells, Table 19) is over 500 nM.

Turning to `CCC(=O)c1cnc(NC(=O)[C@@H]2C[C@@H]2C(=O)O)cc1Nc1cccc(-c2ncn(C)n2)c1OC`, the IC50 on human JAK2 is over 500 nM; at TYK2 JH2 domain (read-out: TYK2 IC50, Table 20) it was over 500 nM; on human JAK3, over 500 nM; on human JAK1, over 500 nM.

The record behind these values is patent US20230295119A1, “SUBSTITUTED PYRIDINES FOR THE TREATMENT OF INFLAMMATORY DISEASES” (GOSSAMER BIO SERVICES, INC., priority 2020, published 2023).
